Source: PubChem BioAssay AID1159578 (Peter MacCallum Cancer Centre, 2015)

- Aim: 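Genome-wide hunt for genes controlling movement of lymphatic endothelial cells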 (primary screen)
- Cells: human lymphatic endothelial cells
- Knock-down reagent: siRNA pool against human genes, 40 nM
- Timing: 48 h after transfection
- Measured: 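Cells stained with dye and imaged after a scratch; covered wound area and nuclei counted, duplicates averaged, migration set against mock wells and turned into a robust z-score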
- Reading the numbers: migration robust z-score: higher = faster migration into the scratch; nuclei per well: higher = more cells in the well
- Hit rule: 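Pools averaging fewer than 3300 nuclei are never called; remaining pools count as changed when migration robust z lies outside -2 to 2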
- Meaning of the calls: active = migration changed; inactive = no migration change, or too few cells
In all, the deposit lists about 18,000 reagents; shown is a part drawn at random. About 1,030 of all reagents (5.7%) were called active. 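Inactive calls also include pools with fewer than 3300 nuclei, whose migration was not assessed.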 Raw values are not corrected between plates. A number with no mark means an inactive call. Not all columns of the deposit are shown. No sequences are given here.

PNP
- migration robust z-score: 1.35
- migration class with cell-count check: migration z between -2 and 2; enough cells
- nuclei per well, duplicate mean: 6480

PTGDR2
- migration robust z-score: -0.31
- migration class with cell-count check: migration z between -2 and 2; enough cells
- nuclei per well, duplicate mean: 6344

DNAJB2
- migration robust z-score: -0.3
- migration class with cell-count check: migration z between -2 and 2; enough cells
- nuclei per well, duplicate mean: 6824

PRAMEF7
- migration robust z-score: -0.68
- migration class with cell-count check: migration z between -2 and 2; enough cells
- nuclei per well, duplicate mean: 6444

IL17A
- migration robust z-score: -1.37
- migration class with cell-count check: migration z between -2 and 2; enough cells
- nuclei per well, duplicate mean: 6304

MBD3L1
- migration robust z-score: -0.66
- migration class with cell-count check: migration z between -2 and 2; enough cells
- nuclei per well, duplicate mean: 5984

NMBR
- migration robust z-score: 0.18
- migration class with cell-count check: migration z between -2 and 2; enough cells
- nuclei per well, duplicate mean: 6542

EIF1B
- migration robust z-score: 1.21
- migration class with cell-count check: migration z between -2 and 2; enough cells
- nuclei per well, duplicate mean: 6399

ZEB2
- migration robust z-score: -0.8
- migration class with cell-count check: migration z between -2 and 2; enough cells
- nuclei per well, duplicate mean: 3342

DNAJC27
- migration robust z-score: 0.44
- migration class with cell-count check: migration z between -2 and 2; enough cells
- nuclei per well, duplicate mean: 5290

ZNF43
- migration robust z-score: -0.43
- migration class with cell-count check: migration z between -2 and 2; enough cells
- nuclei per well, duplicate mean: 4691

CDH26
- migration robust z-score: -0.5
- migration class with cell-count check: migration z between -2 and 2; enough cells
- nuclei per well, duplicate mean: 5360

SLC35C1
- migration robust z-score: -2.21 (active)
- migration class with cell-count check: migration z below -2; enough cells
- nuclei per well, duplicate mean: 5096

ZFP90
- migration robust z-score: -0.2
- migration class with cell-count check: migration z between -2 and 2; enough cells
- nuclei per well, duplicate mean: 5597

PRDM11
- migration robust z-score: 1.71
- migration class with cell-count check: migration z between -2 and 2; enough cells
- nuclei per well, duplicate mean: 5129

FAM20B
- migration robust z-score: 0.63
- migration class with cell-count check: migration z between -2 and 2; enough cells
- nuclei per well, duplicate mean: 5570

SLC25A2
- migration robust z-score: -0.21
- migration class with cell-count check: migration z between -2 and 2; enough cells
- nuclei per well, duplicate mean: 4596

EIF3E
- migration robust z-score: -0.94
- migration class with cell-count check: migration z between -2 and 2; enough cells
- nuclei per well, duplicate mean: 5640

NDST1
- migration robust z-score: 0.09
- migration class with cell-count check: migration z between -2 and 2; enough cells
- nuclei per well, duplicate mean: 7198

FAM86C1P
- migration robust z-score: 0.88
- migration class with cell-count check: migration z between -2 and 2; enough cells
- nuclei per well, duplicate mean: 6932

CDC14B
- migration robust z-score: -0.9
- migration class with cell-count check: migration z between -2 and 2; enough cells
- nuclei per well, duplicate mean: 5152

Active calls (from the list above):
SLC35C1
- migration robust z-score: -2.21 (active)
- migration class with cell-count check: migration z below -2; enough cells
- nuclei per well, duplicate mean: 5096
